Experimental data: article doi:10.1101/2020.02.20.958934
Results are given in words; binding and its absence hold for the method and conditions named. Binding seen in cells or lysates may run through a third protein. Some results given as binding are weak or reduced against the parent protein; the word gives no strength. Tags and fused reporters may be left off the sequences shown.

Target: T1, DCF1-his-myc (UniProt Q9QY73)
T1 sequence: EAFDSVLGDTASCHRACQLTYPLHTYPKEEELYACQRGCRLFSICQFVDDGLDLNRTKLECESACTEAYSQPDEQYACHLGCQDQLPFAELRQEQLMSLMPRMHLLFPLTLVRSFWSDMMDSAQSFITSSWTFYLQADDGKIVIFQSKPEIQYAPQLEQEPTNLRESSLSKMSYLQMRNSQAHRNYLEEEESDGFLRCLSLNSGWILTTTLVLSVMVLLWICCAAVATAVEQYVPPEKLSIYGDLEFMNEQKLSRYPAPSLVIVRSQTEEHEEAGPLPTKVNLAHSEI
Experiment: co-IP

binding: binds
B1: PEBP1-1d4 (protein, UniProt P70296 1-187)
chain: MAADISQWAGPLCLQEVDEPPQHALRVDYAGVTVDELGKVLTPTQVMNRPSSISWDGLDPGKLYTLVLTDPDAPSRKDPKFREWHHFLVVNMKGNDISSGTVLSDYVGSGPPSGTGLHRYVWLVYEQEQPLSCDEPILSNKSGDNRGKFKVETFRKKYNLGAPVAGTCYQAEWDDYVPKLYEQLSGK
